Measured values taken from patent publication US11319303B2 (WIGEN BIOMEDICINE TECHNOLOGY (SHANGHAI) CO., LTD., priority 2017, dated 2022).
The structures given here were assigned with low confidence; some may be wrong.

target: LC3B (Homo sapiens, UniProt Q9GZQ8); test: Fluorescence Polarization (FP) Assay: displacement of FITC-labeled peptide from GST-LC3B; assay type: binding; settings: GST-LC3B 180 nM, FITC-labeled peptide 18 nM, 25° C.

Compared with `O=C1CC(c2cccc3cnccc23)CC(=O)C1=CNCCN1CCN(CCO)CC1` (stereo not drawn), `COC(=O)c1cccc(C2CC(=O)C(=CNCCN3CCOCC3)C(=O)C2)c1` (stereo not drawn) is lower in IC50: 15 to 100 µM for the first, under 3 µM for the second. The second is the more potent here.

Compound `CN(C)CCNC=C1C(=O)CC(c2ccccc2[N+](=O)[O-])NC1=O` (stereo not drawn) has an IC50 of 15 to 100 µM.
